# Patent US5216124A (G. D. Searle & Co., priority 1991, dated 1993)
# Test: general procedure: Boc solid-phase peptide synthesis; Merrifield resin (C-terminal acid); pMBHA resin (C-terminal amide)
# Settings: coupling step, monohydrochloride (solution-phase products)
row,Substance,step yield
1,"N-[N-[N-[N-[(1,1-dimethylethoxy)carbonyl]-2,6-dimethyl-L-tyrosyl]-S-(triphenylmethyl)-cysteinyl]-N-methyl-L-phenylalanyl]-3-mercapto-D-valine, methyl ester",93.8%
2,"N-[N-[N-[N-[(1,1-dimethylethoxy)carbonyl]-2,6-dimethyl-L-tyrosyl]-S-(triphenylmethyl)-D-cysteinyl]-L-phenylalanyl]-3-mercapto-D-valine, methyl ester",98%
3,"N-[3-cyclohexyl-N-methyl-N-[N-[N-[(1,1-dimethylethoxy)carbonyl]-2,6-dimethyl-L-tyrosyl]-S-(triphenylmethyl)-D-cysteinyl]-L-alanyl]-3-mercapto-D-valine, methyl ester",97.7%

# Same assay, conditions: late stage modification step, monohydrochloride (solution-phase products)
row,Substance,step yield
1,"2,6-dimethyl-L-tyrosyl-D-cysteinyl-3-cyclohexyl-L-alanyl-3-mercapto-D-valine, cyclic (2→4)-disulfide, methyl ester, monohydrochloride",97.2%
2,"2,6-dimethyl-L-tyrosyl-D-cysteinyl-3-cyclohexyl-N-methyl-L-alanyl-3-mercapto-D-valine, cyclic (2→4)-disulfide, methyl ester, monohydrochloride",94.9%
3,"2,6-dimethyl-L-tyrosyl-D-cysteinyl-3-(2-thienyl)-L-alanyl-3-mercapto-D-valine, cyclic (2→4)-disulfide, methyl ester, monohydrochloride",92.6%
4,"2,6-dimethyl-L-tyrosyl-D-cysteinyl-N-methyl-L-phenylalanyl-3-mercapto-D-valine, cyclic (2→4)-disulfide, methyl ester, monohydrochloride",92.5%

# Same assay, conditions: oxidative folding step, analytical HPLC, monohydrochloride (solution-phase products)
row,Substance,final HPLC purity
1,"PEPTIDE1{[Dmt].[dC].F.[D-Pen]}$PEPTIDE1,PEPTIDE1,2:R3-4:R3$$$V2.0",greater than 99% pure

# Same assay, conditions: oxidative folding step, monohydrochloride (solution-phase products)
row,Substance,oxidative folding yield
1,"N-[(1,1-dimethylethoxy)carbonyl]-2,6-dimethyl-L-tyrosyl-D-cysteinyl-3-cyclohexyl-L-alanyl-3-mercapto-D-valine, cyclic (2→4)-disulfide, methyl ester",22.4%
2,"N-[(1,1-dimethylethoxy)carbonyl]-2,6-dimethyl-L-tyrosyl-D-cysteinyl-4-phenyl-L-2-aminobutanoyl-3-mercapto-D-valine, cyclic (2→4)-disulfide, methyl ester",13%
3,"N-[(1,1-dimethylethoxy)carbonyl]-2,6-dimethyl-L-tyrosyl-D-cysteinyl-4-chloro-L-phenylalanyl-3-mercapto-D-valine, cyclic (2→4)-disulfide, methyl ester",40.6%

# Same assay, conditions: whole synthesis, analytical HPLC, monohydrochloride (solution-phase products)
row,Substance,final HPLC purity
1,"2,3,6-trimethyltyrosyl-D-cysteinyl-L-phenylalanyl-3-mercapto-D-valine, cyclic (2→4)-disulfide, monohydrochloride [Example 82 B]",greater than 98% pure
2,"3-hydroxy-2,4-dimethylphenylalanyl-D-cysteinyl-L-phenylalanyl-3-mercapto-D- valine, cyclic (2→4)-disulfide, monohydrochloride [Example 81 A]",greater than 97% pure
3,"3-hydroxy-2,4-dimethylphenylalanyl-D-cysteinyl-L-phenylalanyl-3-mercapto-D- valine, cyclic (2→4)-disulfide, monohydrochloride [Example 81 B]",greater than 97% pure
4,"2,3,6-trimethyltyrosyl-D-cysteinyl-L-phenylalanyl-3-mercapto-D-valine, cyclic (2→4)-disulfide, monohydrochloride [Example 82 A]",greater than 98% pure

# Strings that start with PEPTIDE1 are HELM notation: dots part the residues, brackets hold end groups and non-standard residues.
